Source: US20170204174A1 (published 2017)
No constants are given. Whether binding was seen depends on the method and setting. Some entries that bind do so weakly or less than the wild type.

Molecular target: T1, recombinant mature human GDF-15 protein (SEQ ID No: 8) (human) (UniProt Q99988)
T1 sequence: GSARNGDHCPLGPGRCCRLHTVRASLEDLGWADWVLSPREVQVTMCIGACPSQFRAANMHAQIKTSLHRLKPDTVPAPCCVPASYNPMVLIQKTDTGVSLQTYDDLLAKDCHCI
Assay: colorimetric ELISA, hrGDF-15 coated (25 ng per well), antibody from 333 ng/ml in 1:3 dilutions

- binding: binds
B1: H1L5 humanized B1-23 anti-GDF-15 antibody (antibody, human IgG1, V domains shown)
VH: QITLKESGPTLVKPTQTLTLTCTFSGFSLSTSGMGVSWIRQPPGKGLEWLAHIYWDDDKRYNPTLKSRLTITKDPSKNQVVLTMTNMDPVDTATYYCARSSYGAMDYWGQGTLVTVSS
VL: DIVLTQSPSFLSASVGDRVTITCKASQNVGTNVAWFQQKPGKSPKALIYSASYRYSGVPDRFTGSGSGTEFTLTISSLQPEDFAAYFCQQYNNFPYTFGGGTKLEIKR
notes: Human IgG1 (trastuzumab backbone); also called H1L5 anti-GDF-15 antibody; humanized B1-23-H1L5 antibody
